We go through four molecules from article PMC3297495.

Experiment [1] has as its target T1, LexA:NH1 (rice (Oryza sativa L)) (UniProt Q9FDY4).
T1 sequence: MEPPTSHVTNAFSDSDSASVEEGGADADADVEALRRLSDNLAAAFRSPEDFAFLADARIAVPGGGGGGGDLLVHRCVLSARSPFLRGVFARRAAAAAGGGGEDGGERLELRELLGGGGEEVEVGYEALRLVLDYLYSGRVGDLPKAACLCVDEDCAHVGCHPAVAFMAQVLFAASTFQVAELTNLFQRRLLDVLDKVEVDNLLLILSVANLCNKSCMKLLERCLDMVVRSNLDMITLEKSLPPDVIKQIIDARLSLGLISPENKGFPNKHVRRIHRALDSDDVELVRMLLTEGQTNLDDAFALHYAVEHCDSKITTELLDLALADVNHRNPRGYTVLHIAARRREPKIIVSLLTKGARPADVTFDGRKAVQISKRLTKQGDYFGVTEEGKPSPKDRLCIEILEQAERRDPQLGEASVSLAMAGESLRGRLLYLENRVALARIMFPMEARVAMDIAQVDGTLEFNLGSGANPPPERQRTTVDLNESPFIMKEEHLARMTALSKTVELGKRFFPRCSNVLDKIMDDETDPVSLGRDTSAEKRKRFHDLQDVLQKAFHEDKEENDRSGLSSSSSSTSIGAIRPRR
The experiment is described as follows: two-hybrid; yeast; NH1 fused to LexA as bait, NRR, its mutants and homologues fused to B42AD as prey; blue colour indicates a positive interaction.

Experiment [2] has as its target T2, YN:NH1 (rice (Oryza sativa L)) (UniProt Q9FDY4).
T2 sequence: T1 sequence
Briefly: split reporter; split YFP in rice protoplasts; YN:NH1 co-expressed transiently with YC fusions; fluorescence observed semi-quantitatively under a microscope 24-36 h after transfection.

Positions count from the first letter of the chain named. No constants are given. Whether binding was seen depends on the method and setting. For some of these results: In cells and extracts the contact can be indirect. Some entries that bind do so weakly or less than the wild type.

B1: B42AD:NRR (protein, UniProt Q5ZEF1 1-127)
chain: MDATTTAKRKRPAASDIADDAPTTVDEVSDAEVEEFYAILRRMRDATRRLGARPPPPRAPAWRPSFSWEDFADAPPKQAPPPPQQPADHERVAENATPPRRPAPGLDLNVEPPSDAPATPRSARAPA
As to B1, the binding entry in experiment [1] is “binds”.

B2: YC:DL (protein, UniProt Q5ZEF1 1-127)
chain: B1 chain with D107A, L108A
For B2, the binding entry in experiment [2] is “binds”.

B3: B42AD:W66 (protein, UniProt Q5ZEF1 1-127)
chain: B1 chain with W62A
B3: the binding entry in experiment [1] is “binds”.

B4: YC:NRR (protein, UniProt Q5ZEF1 1-127)
chain: B1 chain
For the molecule B4, in experiment [2], the binding result is “binds”.
